{"source": "PubChem BioAssay AID1259254 (NCATS, 2017)", "assay": "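Finding genes that stop cells copying their DNA twice in one cycle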 (primary screen)", "system": "human HCT116 colorectal cancer cells", "reagent": "single siRNA against human genes", "time to read-out": "3 days", "detection": "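Nuclei stained with Hoechst and imaged; cell-cycle phase assigned by DNA content; G2 share scaled per plate, non-targeting siRNA 0%, GMNN siRNA 100%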", "scale": "G2 robust z-score: higher = more G2 cells, more excess DNA replication", "rule for the call": "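An siRNA counts as active if its G2 robust z-score lies at least 5 MADs above the screen median; here such calls match roughly 38% of GMNN control or more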", "note": "Here is an unselected part of about 59,000 reagents tested. About 1,550 of all reagents (2.6%) were called active. 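G2 share is only a proxy for re-replication; each gene was hit by three separate siRNAs, and active genes were retested.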 Not all columns of the deposit are shown. Not given: the amount of reagent."}
{"Gene":"TNFRSF10A (GeneID 8797)","PubChem SID":"SID160720825","G2 robust z-score":-0.419,"call":"inactive"}
{"Gene":"TNFRSF10A (GeneID 8797)","PubChem SID":"SID160720826","G2 robust z-score":-0.739,"call":"inactive"}
{"Gene":"TNFRSF10A (GeneID 8797)","PubChem SID":"SID160720827","G2 robust z-score":0.0424,"call":"inactive"}
{"Gene":"SOX7 (GeneID 83595)","PubChem SID":"SID160731991","G2 robust z-score":-0.544,"call":"inactive"}
{"Gene":"SOX7 (GeneID 83595)","PubChem SID":"SID160751228","G2 robust z-score":0.985,"call":"inactive"}
{"Gene":"SOX7 (GeneID 83595)","PubChem SID":"SID160751229","G2 robust z-score":0.86,"call":"inactive"}
{"Gene":"SLC1A4 (GeneID 6509)","PubChem SID":"SID160716793","G2 robust z-score":3.94,"call":"inactive"}
{"Gene":"SLC1A4 (GeneID 6509)","PubChem SID":"SID160716794","G2 robust z-score":-1.02,"call":"inactive"}
{"Gene":"SLC1A4 (GeneID 6509)","PubChem SID":"SID160716795","G2 robust z-score":-0.934,"call":"inactive"}
{"Gene":"SLC44A2 (GeneID 57153)","PubChem SID":"SID160745718","G2 robust z-score":-0.505,"call":"inactive"}
{"Gene":"SLC44A2 (GeneID 57153)","PubChem SID":"SID160745719","G2 robust z-score":0.56,"call":"inactive"}
{"Gene":"SLC44A2 (GeneID 57153)","PubChem SID":"SID160745720","G2 robust z-score":-0.228,"call":"inactive"}
{"Gene":"MAPDA (GeneID 161823)","PubChem SID":"SID160759878","G2 robust z-score":0.578,"call":"inactive"}
{"Gene":"MAPDA (GeneID 161823)","PubChem SID":"SID160759879","G2 robust z-score":-1.15,"call":"inactive"}
{"Gene":"MAPDA (GeneID 161823)","PubChem SID":"SID160759880","G2 robust z-score":0.113,"call":"inactive"}
{"Gene":"C1QTNF6 (GeneID 114904)","PubChem SID":"SID160755094","G2 robust z-score":1.6,"call":"inactive"}
{"Gene":"C1QTNF6 (GeneID 114904)","PubChem SID":"SID160755095","G2 robust z-score":9.08,"call":"active"}
{"Gene":"C1QTNF6 (GeneID 114904)","PubChem SID":"SID160755096","G2 robust z-score":-0.157,"call":"inactive"}
{"Gene":"POLL (GeneID 27343)","PubChem SID":"SID160738766","G2 robust z-score":-1.36,"call":"inactive"}
{"Gene":"POLL (GeneID 27343)","PubChem SID":"SID160738767","G2 robust z-score":-0.22,"call":"inactive"}
{"Gene":"POLL (GeneID 27343)","PubChem SID":"SID160738768","G2 robust z-score":-0.0831,"call":"inactive"}
{"Gene":"OLFM1 (GeneID 10439)","PubChem SID":"SID160724266","G2 robust z-score":0.311,"call":"inactive"}
{"Gene":"OLFM1 (GeneID 10439)","PubChem SID":"SID160728426","G2 robust z-score":-0.65,"call":"inactive"}
{"Gene":"OLFM1 (GeneID 10439)","PubChem SID":"SID160730436","G2 robust z-score":-1.22,"call":"inactive"}
